{"sequences": {"note": "Sequences of proteins named here, by UniProt entry; tags and fusion partners are left off. A change or cut given only in a name is not applied to a line headed by its entry.", "UniProt P51450": "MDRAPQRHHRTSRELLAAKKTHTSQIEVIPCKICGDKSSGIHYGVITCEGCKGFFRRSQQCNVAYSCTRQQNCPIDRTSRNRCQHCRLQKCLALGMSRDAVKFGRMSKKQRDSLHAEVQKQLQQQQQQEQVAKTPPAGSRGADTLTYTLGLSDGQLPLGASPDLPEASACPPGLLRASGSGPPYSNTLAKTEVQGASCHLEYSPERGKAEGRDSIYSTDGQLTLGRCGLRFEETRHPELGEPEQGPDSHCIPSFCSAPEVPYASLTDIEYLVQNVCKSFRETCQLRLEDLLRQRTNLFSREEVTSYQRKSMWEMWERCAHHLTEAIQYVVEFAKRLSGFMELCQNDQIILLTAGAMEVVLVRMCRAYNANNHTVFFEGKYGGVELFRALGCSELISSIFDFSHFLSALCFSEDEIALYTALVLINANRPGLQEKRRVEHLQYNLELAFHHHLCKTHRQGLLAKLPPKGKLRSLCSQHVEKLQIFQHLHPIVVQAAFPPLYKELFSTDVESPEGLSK"}, "source": "PubChem BioAssay AID2551", "about": "(National Center for Advancing Translational Sciences (NCATS), 2010)", "note": "Screen size: about 310,000 compounds; about 17,000 (5.5%) were called active. Inconclusive results, whose numbers are uncertain, are shown with a selection of clear calls. The call rests on the fitted dose curve; in most records, active means well fitted inhibition curve with a large enough effect; inconclusive means small, poorly fitted or top-dose-only effect, or effect the other way; inactive means no such curve, though single readings can be large or run the other way. Potencies of inconclusive entries are doubtful fits and often do not repeat. Potency means the concentration at half of the fitted maximal effect."}
{"molecular_target": "Nuclear receptor ROR-gamma (Mus musculus) (UniProt P51450)", "assay": "qHTS for inhibitors of ROR gamma transcriptional activity; further: nearly all actives have a fitted effect of over 60% in size", "details": "Drosophila S2 Gal4-RORgamma UAS-luciferase reporter, 20 h; series mostly up to 53.6 µM", "outline": "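Compounds are pin-transferred onto Drosophila Schneider cells expressing a copper-inducible Gal4–ROR gamma transactivation domain fusion. After 1 hr, copper sulfate is added to 700 uM final; luciferase is read 20 hr later.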"}
{"smiles": "Cn1c(SCc2ccc(C(C)(C)C)cc2)nnc1C1COc2ccccc2O1", "note": "(stereo not given)", "Potency": "inconclusive: 10 µM [activator, partial curve]"}
{"smiles": "COC(=O)C1=C[C@@H](C(=O)OC)[C@@H]2C3=C(C(=O)[C@]2(C)NC(=O)c2ccccc2)[C@H](C)[C@@H]2C(=O)NC(=O)[C@@H]2[C@@H]3C1", "Potency": "inactive"}
{"smiles": "O=C(/C=C/c1ccco1)Nc1ccccc1C(=O)Nc1cccc(C(=O)O)c1", "Potency": "inactive"}
{"smiles": "Cc1cc(N/N=C\\c2ccc(Br)cc2)nc(-n2nc(C)cc2C)n1", "Potency": "active: 0.1 µM"}
{"smiles": "CCOC(=O)C1(CCOc2ccccc2)CCN(Cc2ccc(O)c(Cl)c2)CC1", "Potency": "inconclusive: 15.8 µM [activator, single point]"}
{"smiles": "Cc1nn(C)c(C)c1NC(=O)C12CC3CC(CC(C3)C1)C2", "Potency": "inconclusive: 3.55 µM [activator, single point]"}
{"smiles": "NNc1nc(-c2ccccc2)c2cc(Cl)ccc2n1", "Potency": "active: 12.6 µM"}
{"smiles": "Cc1ccc(C)c(/C=C/C(=O)c2ccccc(=O)c2O)c1", "Potency": "active: 3.16 µM"}
{"smiles": "Cc1cccc(C)c1NC(=S)NCCSc1ccc(Cl)cc1", "Potency": "active: 2.51 µM"}
{"smiles": "O=C(COc1ccccc1-c1ccccc1)c1ccccc1", "Potency": "inconclusive: 31.6 µM [activator, single point]"}
{"smiles": "CC(Nc1ccc(Br)cc1)C(=O)N/N=C/c1ccccc1OCc1ccccc1", "note": "(stereo not given)", "Potency": "inactive"}
{"smiles": "Cc1ccc2c(Cl)cc(Cl)c(OCC(=O)NC(C)(C)C)c2n1", "Potency": "active: 7.08 µM"}
{"smiles": "CCOC(=O)CSc1nc2c(sc3ccc([N+](=O)[O-])cc32)c(=O)n1Cc1ccco1", "Potency": "active: 8.91 µM"}
{"smiles": "CN(Cc1ccccc1F)c1nc(-c2cccnc2)nc2ccccc12", "Potency": "inactive"}
{"smiles": "C=CCn1c(SCc2csc(-c3ccc(Cl)cc3)n2)nnc1-c1ccccc1OC", "Potency": "inconclusive: 31.6 µM [activator, single point]"}
{"smiles": "CCCCCCCNC(=O)C1(CC2CC(c3ccc(Cl)cc3)=NO2)CCNCC1", "note": "(stereo not given)", "Potency": "inconclusive: 35.5 µM [inhibitor, single point]"}
{"smiles": "CC(C)NC(=O)c1cc(-c2ccc3c(c2)OCO3)on1", "Potency": "inconclusive: 0.398 µM [inhibitor, partial curve, poor fit]"}
{"smiles": "Clc1ccccc1OCc1nc(-c2ccncc2)no1", "Potency": "inconclusive: 2.24 µM [activator, partial curve]"}
{"smiles": "Cc1[nH]n(-c2ccccc2)c(=O)c1-c1ccc(Cl)cc1", "Potency": "inconclusive: 8.91 µM [activator, partial curve]"}
{"smiles": "CCOCC(=O)Nc1nc2ccc(OCC)cc2s1", "Potency": "inconclusive: 22.4 µM [inhibitor, single point]"}
{"smiles": "CCC/C=C(\\CCC)C(NC(=O)c1ccccc1)c1ccccc1", "note": "(stereo not given)", "Potency": "inconclusive: 14.1 µM [inhibitor, partial curve]"}
{"smiles": "COc1cccc(N/C=C(\\C#N)c2ccc(OCCCF)cc2)c1", "Potency": "inactive"}
{"smiles": "CC(C)c1ccc(/C=N/Nc2ccc(C(=O)O)cc2)cc1", "Potency": "inconclusive: 0.0447 µM [inhibitor, full curve, poor fit]"}
{"smiles": "COc1ccccc1CN(Cc1nc2ccccc2c(=O)[nH]1)C(=O)Nc1ccccc1C", "Potency": "active: 10 µM"}
{"smiles": "COc1ccc(NC(=O)c2ccc(C(=O)c3cc(OC)ccc3OC)cc2)cc1", "Potency": "inconclusive: 14.1 µM [inhibitor, single point]"}
{"smiles": "O=C1C=CC(=O)N1c1ccc(N2CCCCC2)cc1", "Potency": "active: 5.62 µM"}
{"smiles": "O=C(COc1ccccc1Cl)Nc1ccc(C(=O)N2CCCCC2)cc1", "Potency": "inconclusive: 35.5 µM [activator, single point]"}
{"smiles": "Cc1cc(NC(=O)C2CCCCC2)n(-c2nc3ccccc3[nH]2)n1", "Potency": "active: 1.58 µM"}
{"smiles": "CCOC(=O)N1CCN(C(=S)Nc2ccc(C)c(C)c2)CC1", "Potency": "inconclusive: 35.5 µM [inhibitor, single point]"}
{"smiles": "CCOC(=O)c1c(C2CC2)csc1NC(=O)COC(=O)c1cc(OC)c(OC)cc1[N+](=O)[O-]", "Potency": "inactive"}
{"smiles": "O=c1c2cc(-c3ccccc3)sc2ncn1/N=C/c1ccco1", "Potency": "inconclusive: 0.631 µM [activator, full curve, poor fit]"}
{"smiles": "O=C(c1ccco1)N1CCN(C(=O)c2sccc2-c2ccccc2)CC1", "Potency": "inconclusive: 28.2 µM [activator, single point]"}
{"smiles": "Cc1ccc(Nc2nnc(SC/C(O)=C(\\C#N)c3nc4ccccc4[nH]3)s2)c(C)c1", "Potency": "inconclusive: 25.1 µM [inhibitor, single point]"}
{"smiles": "CCC(C)(C)NC(=O)C(c1ccc(C)cc1)N(Cc1ccco1)C(=O)Cn1nnc2ccccc21", "note": "(stereo not given)", "Potency": "inactive"}
{"smiles": "CCOC(=O)/C=C/C(=O)OCC(=O)NC(c1ccccc1)c1ccccc1", "Potency": "inconclusive: 31.6 µM [activator, single point]"}
{"smiles": "Oc1ccc(Br)cc1-c1cc(-c2ccccc2F)[nH]n1", "Potency": "active: 1.78 µM"}
{"smiles": "CC(/C=N/NC(=O)c1cccnc1)=C\\c1ccco1", "Potency": "inconclusive: 35.5 µM [inhibitor, single point]"}
{"smiles": "CCCCNC(=O)c1c[nH]c2ccc(S(=O)(=O)Nc3ccc(OCC)cc3)cc2c1=O", "Potency": "active: 7.94 µM"}
{"smiles": "C(=C\\c1ccccc1)/C=N/Nc1nc(N2CCCCC2)nc(N2CCCCC2)n1", "Potency": "active: 0.794 µM"}
{"smiles": "Cc1ccccc1Nc1nc(-c2sc(NC(=O)c3ccco3)nc2C)cs1", "Potency": "inconclusive: 35.5 µM [inhibitor, single point]"}
{"smiles": "Clc1ccc(CN2CCSCC2)cc1Cl", "Potency": "inactive"}
{"smiles": "COc1cccc(NC(=S)N(CCN(C)C)C(C)c2ccco2)c1", "note": "(stereo not given)", "Potency": "inconclusive: 14.1 µM [inhibitor, single point]"}
{"smiles": "FC(F)Oc1ccc(NC(=S)NC2CCCCCCC2)cc1", "Potency": "active: 3.55 µM"}
{"smiles": "Fc1ccccc1-n1[nH]nnc1=S", "Potency": "inconclusive: 31.6 µM [inhibitor, single point]"}
{"smiles": "COc1ccc([N+](=O)[O-])cc1NC(=O)CSc1nc(C)cc(C)n1", "Potency": "inconclusive: 17.8 µM [inhibitor, single point]"}
{"smiles": "Cc1ccc2sc(NNC(=O)C3COc4ccccc4O3)nc2c1C", "note": "(stereo not given)", "Potency": "active: 2 µM"}
{"smiles": "CC(/C=N/NC(=O)Cc1cccs1)=C\\c1ccco1", "Potency": "inconclusive: 0.708 µM [activator, full curve, poor fit]"}
{"smiles": "CCCc1cc(Nc2cccc(OCC)c2)n2ncnc2n1", "Potency": "inconclusive: 22.4 µM [inhibitor, single point]"}
{"smiles": "CCCCN1C(=S)NC[C@@H]1Cc1ccccc1", "Potency": "active: 1.78 µM"}
{"smiles": "Cc1ccc(-n2c(Cn3nc(C(F)F)cc3C(F)F)n[nH]c2=S)cc1", "Potency": "inconclusive: 11.2 µM [inhibitor, single point]"}
{"smiles": "CCC1=C2CC[C@H]3C(=O)N(C)C(=O)[C@H]3[C@H]2[C@@]2(C)C(=NCc3ccccc3)OC(=O)N2C1=O", "Potency": "inactive"}
{"smiles": "O=C1CSc2ccc(S(=O)(=O)NCc3ccccc3)cc2N1", "Potency": "inactive"}
{"smiles": "COc1ccc(-c2c[n+]3c(n2-c2ccccc2)SCC3)cc1OC", "Potency": "inactive"}
{"smiles": "Nc1nc(SCC(=O)Nc2ccc([N+](=O)[O-])cc2Br)n[nH]1", "Potency": "inconclusive: 12.6 µM [activator, partial curve]"}
{"smiles": "Cc1cccc(C(=O)OCC(=O)NCCNC(=O)COC(=O)c2cccc(C)c2C)c1C", "Potency": "active: 12.6 µM"}
{"smiles": "Cc1cc(Cl)ccc1-n1c(-c2cccnc2)n[nH]c1=S", "Potency": "inconclusive: 35.5 µM [inhibitor, single point]"}
{"smiles": "CC(/C=N/n1c(COc2ccccc2)n[nH]c1=S)=C\\c1ccccc1", "Potency": "active: 2.51 µM"}
{"smiles": "CCOC(=O)c1sc2nc(C)nc(NCc3ccc(Cl)cc3)c2c1C", "Potency": "inconclusive: 35.5 µM [activator, single point]"}
{"smiles": "Cn1c(=O)c(Oc2ccc(F)cc2)c(O)c2ccccc21", "Potency": "inactive"}
{"smiles": "O=C(COC(=O)COc1ccc2ccccc2c1)NC1CCCc2ccccc21", "note": "(stereo not given)", "Potency": "inactive"}
{"smiles": "COc1ccc(NC(=S)Nc2cccc(S(=O)(=O)N3CCCCC3)c2)cc1", "Potency": "active: 17.8 µM"}
{"smiles": "O=C(c1cccc(C(F)(F)F)c1)C1CCCN(C(=O)CCCn2cncn2)C1", "note": "(stereo not given)", "Potency": "inconclusive: 12.6 µM [activator, single point]"}
{"smiles": "CCOC(=O)c1ccc(NC(=S)N2CCN(CCN=CC3=C(O)CC(c4ccccc4)CC3=O)CC2)cc1", "note": "(stereo not given)", "Potency": "inconclusive: 14.1 µM [activator, single point]"}
{"smiles": "COc1ccccc1NC(=O)c1ccc(NS(=O)(=O)c2ccc(F)c(F)c2F)cc1", "Potency": "inactive"}
{"smiles": "COc1ccc(CN2CCC(=O)N([C@H](CO)Cc3ccccc3)CC2)cc1OC", "Potency": "inconclusive: 0.0562 µM [activator, full curve, poor fit]"}
{"smiles": "O=C(CSc1ccccc1)Nc1ccc(S(=O)(=O)Nc2ncccn2)cc1", "Potency": "active: 12.6 µM"}
{"smiles": "O=S(=O)(c1ccc(Cl)cc1)N1CCN(C(=S)Nc2ccc(F)c(Cl)c2)CC1", "Potency": "inconclusive: 17.8 µM [inhibitor, single point]"}
{"smiles": "O=C(Nc1cccc(C(F)(F)F)c1)c1ccc(Cn2cc(Br)cn2)o1", "Potency": "inconclusive: 11.2 µM [activator, partial curve]"}
{"smiles": "COc1ccc(NC(=O)CSC2=C(C#N)C(c3ccco3)C3=C(CCCC3=O)N2)c(OC)c1", "note": "(stereo not given)", "Potency": "inactive"}
{"smiles": "c1ccc(C2CNCCc3ccccc32)cc1", "note": "(stereo not given)", "Potency": "inactive"}
{"smiles": "CC(C)c1ccc(NC(=S)NN2CCOCC2)cc1", "Potency": "active: 8.91 µM"}
{"smiles": "CC1(C)Cc2c(c(N3CCOCC3)nc3sc(C(=O)Nc4ccccc4)c(N)c23)CO1", "Potency": "inactive"}
{"smiles": "CC(=O)Nc1ccc(S(=O)(=O)N2CCN(S(=O)(=O)c3ccccc3)CC2)cc1", "Potency": "inactive"}
{"smiles": "O=C(/C=C/c1ccc(OC(F)F)cc1)Nc1cccc(S(=O)(=O)NC2=NCCCCC2)c1", "Potency": "inconclusive: 11.2 µM [activator, partial curve]"}
{"smiles": "COc1ccc(Cc2nnc(N/N=C/c3ccc(O)cc3O)[nH]c2=O)cc1OC", "Potency": "inactive"}
